Test results published in patent US20190025321A1.
No constants are given. Whether binding was seen depends on the method and setting. For some of these results: In cells and extracts the contact can be indirect. Some results given as binding are weak or reduced against the parent protein; the word gives no strength.

Chains of the proteins cited; added tags and fusions are not shown. Lines headed by an entry give the natural chain unless they say otherwise; changes in a name come on top.
UniProt Q9NXC5: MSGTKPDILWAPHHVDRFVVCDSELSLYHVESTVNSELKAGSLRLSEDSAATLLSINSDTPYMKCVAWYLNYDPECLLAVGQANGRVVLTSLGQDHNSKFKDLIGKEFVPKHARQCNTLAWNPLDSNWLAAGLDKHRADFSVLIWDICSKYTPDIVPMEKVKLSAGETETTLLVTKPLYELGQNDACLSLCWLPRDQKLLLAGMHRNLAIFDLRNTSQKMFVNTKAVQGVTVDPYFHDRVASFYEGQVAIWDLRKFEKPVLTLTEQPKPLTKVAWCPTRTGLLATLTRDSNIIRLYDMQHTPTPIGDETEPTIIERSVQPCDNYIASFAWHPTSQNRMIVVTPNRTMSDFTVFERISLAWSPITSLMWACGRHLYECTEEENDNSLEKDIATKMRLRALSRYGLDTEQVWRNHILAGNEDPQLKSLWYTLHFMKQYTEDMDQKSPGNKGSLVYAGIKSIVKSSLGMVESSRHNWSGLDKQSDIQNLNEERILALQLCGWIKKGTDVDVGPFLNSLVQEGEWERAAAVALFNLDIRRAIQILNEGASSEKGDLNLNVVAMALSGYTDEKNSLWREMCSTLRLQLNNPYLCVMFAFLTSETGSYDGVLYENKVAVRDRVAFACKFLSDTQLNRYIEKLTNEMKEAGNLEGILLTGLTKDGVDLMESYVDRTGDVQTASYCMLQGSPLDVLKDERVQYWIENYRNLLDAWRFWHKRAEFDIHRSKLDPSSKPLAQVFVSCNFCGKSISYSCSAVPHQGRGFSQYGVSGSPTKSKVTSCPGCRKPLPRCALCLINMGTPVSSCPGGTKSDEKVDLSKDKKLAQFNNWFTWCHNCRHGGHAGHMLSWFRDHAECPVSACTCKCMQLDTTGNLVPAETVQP
UniProt Q96S15: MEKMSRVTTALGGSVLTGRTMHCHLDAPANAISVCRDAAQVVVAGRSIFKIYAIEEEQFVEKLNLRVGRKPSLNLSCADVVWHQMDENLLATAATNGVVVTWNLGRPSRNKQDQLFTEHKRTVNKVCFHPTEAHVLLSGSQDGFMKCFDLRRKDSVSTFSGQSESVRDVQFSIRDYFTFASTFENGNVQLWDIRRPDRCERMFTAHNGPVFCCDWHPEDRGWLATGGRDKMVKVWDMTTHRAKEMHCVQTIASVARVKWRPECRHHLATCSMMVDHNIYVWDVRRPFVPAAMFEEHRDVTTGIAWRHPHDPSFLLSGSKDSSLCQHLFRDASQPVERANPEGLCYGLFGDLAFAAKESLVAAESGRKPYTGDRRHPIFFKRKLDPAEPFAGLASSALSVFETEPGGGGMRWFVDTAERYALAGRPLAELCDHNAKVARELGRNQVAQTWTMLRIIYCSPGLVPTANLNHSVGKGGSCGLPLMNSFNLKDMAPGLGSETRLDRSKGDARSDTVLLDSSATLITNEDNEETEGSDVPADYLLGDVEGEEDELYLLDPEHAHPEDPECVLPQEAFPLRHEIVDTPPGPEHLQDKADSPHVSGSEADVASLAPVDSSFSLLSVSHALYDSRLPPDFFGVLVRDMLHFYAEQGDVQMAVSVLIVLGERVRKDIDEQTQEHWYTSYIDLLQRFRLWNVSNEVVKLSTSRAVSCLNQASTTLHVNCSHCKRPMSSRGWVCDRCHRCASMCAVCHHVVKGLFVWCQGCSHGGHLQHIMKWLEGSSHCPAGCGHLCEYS
UniProt Q6PJI9: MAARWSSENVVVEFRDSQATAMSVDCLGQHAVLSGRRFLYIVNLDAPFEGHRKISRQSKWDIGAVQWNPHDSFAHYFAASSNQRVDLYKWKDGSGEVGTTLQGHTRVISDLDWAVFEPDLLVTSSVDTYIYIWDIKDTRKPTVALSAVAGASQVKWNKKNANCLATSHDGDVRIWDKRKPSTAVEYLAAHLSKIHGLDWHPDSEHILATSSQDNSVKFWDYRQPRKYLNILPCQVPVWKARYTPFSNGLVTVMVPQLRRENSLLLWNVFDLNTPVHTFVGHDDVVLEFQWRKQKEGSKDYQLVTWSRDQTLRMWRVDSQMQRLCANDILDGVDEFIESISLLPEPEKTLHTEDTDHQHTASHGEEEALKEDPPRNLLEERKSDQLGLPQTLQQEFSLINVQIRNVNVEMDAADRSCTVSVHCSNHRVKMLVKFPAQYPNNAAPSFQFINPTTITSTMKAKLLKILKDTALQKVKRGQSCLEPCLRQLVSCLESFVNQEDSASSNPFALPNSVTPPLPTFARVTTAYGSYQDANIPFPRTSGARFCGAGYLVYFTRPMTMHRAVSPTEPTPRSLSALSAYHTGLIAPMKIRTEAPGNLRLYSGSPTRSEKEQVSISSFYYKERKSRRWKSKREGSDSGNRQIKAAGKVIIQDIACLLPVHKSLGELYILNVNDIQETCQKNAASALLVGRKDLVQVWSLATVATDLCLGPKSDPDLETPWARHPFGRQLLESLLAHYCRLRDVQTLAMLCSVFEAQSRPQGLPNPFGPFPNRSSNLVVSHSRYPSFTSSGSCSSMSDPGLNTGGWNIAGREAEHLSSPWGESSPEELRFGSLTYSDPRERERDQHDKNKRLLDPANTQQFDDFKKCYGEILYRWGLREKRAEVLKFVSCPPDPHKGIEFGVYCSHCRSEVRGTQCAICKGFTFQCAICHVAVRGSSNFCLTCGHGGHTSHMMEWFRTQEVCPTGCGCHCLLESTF
UniProt P55735: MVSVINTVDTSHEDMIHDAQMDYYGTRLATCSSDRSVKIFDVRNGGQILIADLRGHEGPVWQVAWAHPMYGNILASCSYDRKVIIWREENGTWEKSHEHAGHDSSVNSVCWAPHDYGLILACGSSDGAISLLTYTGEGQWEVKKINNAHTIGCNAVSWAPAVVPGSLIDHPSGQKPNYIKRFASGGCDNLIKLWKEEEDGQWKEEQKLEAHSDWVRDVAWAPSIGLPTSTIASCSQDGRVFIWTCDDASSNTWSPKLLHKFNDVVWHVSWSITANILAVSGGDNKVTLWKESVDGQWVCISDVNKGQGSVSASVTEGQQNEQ
UniProt Q96EE3: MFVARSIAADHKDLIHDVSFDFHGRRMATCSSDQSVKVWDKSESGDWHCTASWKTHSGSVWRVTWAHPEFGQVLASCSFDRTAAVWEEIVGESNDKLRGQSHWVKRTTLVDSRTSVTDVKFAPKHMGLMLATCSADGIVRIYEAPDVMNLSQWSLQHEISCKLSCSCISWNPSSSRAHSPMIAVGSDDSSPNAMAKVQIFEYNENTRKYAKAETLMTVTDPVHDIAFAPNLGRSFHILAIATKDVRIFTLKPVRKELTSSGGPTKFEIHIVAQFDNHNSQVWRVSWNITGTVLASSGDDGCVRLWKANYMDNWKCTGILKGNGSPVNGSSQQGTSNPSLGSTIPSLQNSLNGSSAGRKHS

Experiments:
[1] = target: T1, endogenous GATOR2 complex (Seh1L, WDR59, WDR24, Sec13 and Mios) (human) (UniProt Q9NXC5+Q96S15+Q6PJI9+P55735+Q96EE3); test: summary of the co-immunoprecipitation experiments
[2] = target: T2, recombinant CASTOR2 (protein encoded by the GATSL2 gene) (human) (UniProt A6NHX0); test: anti-HA co-immunoprecipitation, HEK-293T cells (FIG. 2A)
T2 sequence (looked up): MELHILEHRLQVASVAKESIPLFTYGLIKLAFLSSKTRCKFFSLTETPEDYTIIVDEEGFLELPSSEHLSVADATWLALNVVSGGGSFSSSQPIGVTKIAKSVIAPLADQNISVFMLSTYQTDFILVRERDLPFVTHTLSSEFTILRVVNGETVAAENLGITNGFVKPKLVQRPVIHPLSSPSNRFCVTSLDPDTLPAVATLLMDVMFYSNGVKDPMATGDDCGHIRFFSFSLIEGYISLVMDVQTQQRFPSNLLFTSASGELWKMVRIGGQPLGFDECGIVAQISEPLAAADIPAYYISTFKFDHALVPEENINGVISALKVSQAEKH

[3] = target: T3, endogenous CASTOR1 (human) (UniProt Q8WTX7); test: anti-HA co-immunoprecipitation, HEK-293T cells (FIG. 2B)
T3 sequence (looked up): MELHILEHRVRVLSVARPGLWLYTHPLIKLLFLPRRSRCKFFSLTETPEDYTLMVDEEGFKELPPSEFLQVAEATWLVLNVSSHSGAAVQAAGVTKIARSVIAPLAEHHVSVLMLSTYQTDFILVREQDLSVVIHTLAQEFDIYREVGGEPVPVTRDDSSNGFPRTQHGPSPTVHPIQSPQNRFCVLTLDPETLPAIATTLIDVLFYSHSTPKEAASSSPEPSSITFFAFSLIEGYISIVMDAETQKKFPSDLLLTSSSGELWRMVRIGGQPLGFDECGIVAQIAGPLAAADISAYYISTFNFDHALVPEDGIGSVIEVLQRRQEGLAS

[4] = target: T2, recombinant CASTOR2 (protein encoded by the GATSL2 gene) (human); test: anti-HA co-immunoprecipitation, HEK-293T cells (FIG. 3A)
[5] = target: T1, endogenous GATOR2 complex (Seh1L, WDR59, WDR24, Sec13 and Mios) (human); test: anti-HA co-immunoprecipitation, HEK-293T cells, immunoblot (FIG. 1D)
[6] = target: T1, endogenous GATOR2 complex (Seh1L, WDR59, WDR24, Sec13 and Mios) (human); test: anti-HA co-immunoprecipitation from HEK-293T cells growing in DMEM (FIG. 1D)
[7] = target: T1, endogenous GATOR2 complex (Seh1L, WDR59, WDR24, Sec13 and Mios) (human); test: anti-HA co-immunoprecipitation, HEK-293T cells, immunoblot for mios (FIG. 1D)
[8] = target: T4, recombinant CASTOR1 (Cellular Arginine Sensor for mTORC1; protein encoded by the GATS protein-like 3 gene) (human) (UniProt Q8WTX7); test: co-purification from HEK-293T cells, SDS-PAGE with Coomassie blue staining
T4 sequence (looked up): T3 sequence (looked up)

[9] = target: T2, recombinant CASTOR2 (protein encoded by the GATSL2 gene) (human); test: anti-HA co-immunoprecipitation of differently tagged proteins, HEK-293T cells (FIG. 2A)
[10] = target: T3, endogenous CASTOR1 (human); test: anti-HA co-immunoprecipitation, HEK-293T cells, immunoblot for endogenous CASTOR1 (FIG. 2B)
[11] = target: complete GATOR2 complex, recombinant (WDR24-FLAG, WDR59, mios, sec13, seh1L co-expressed) (UniProt Q96S15); test: displacement by co-expression, anti-FLAG immunoprecipitation, HEK-293T cells; competitor CASTOR1 (FIG. 7F)
[12] = target: T3, endogenous CASTOR1 (human); test: co-immunoprecipitation, anti-HA IP from transfected HEK-293T cells, immunoblot for endogenous CASTOR1
[13] = target: T4, recombinant CASTOR1 (Cellular Arginine Sensor for mTORC1; protein encoded by the GATS protein-like 3 gene) (human); test: co-immunoprecipitation, anti-HA IP from co-transfected HEK-293T cells, immunoblot; bait CASTOR2-HA, prey CASTOR1-FLAG
[14] = target: T2, recombinant CASTOR2 (protein encoded by the GATSL2 gene) (human); test: co-immunoprecipitation, anti-HA IP from co-transfected HEK-293T cells, immunoblot; bait CASTOR2-HA, prey CASTOR2-FLAG
[15] = target: T1, endogenous GATOR2 complex (Seh1L, WDR59, WDR24, Sec13 and Mios) (human); test: co-immunoprecipitation, anti-HA IP from transfected HEK-293T cells starved of all amino acids 50 min, immunoblot for endogenous mios
[16] = target: T2, recombinant CASTOR2 (protein encoded by the GATSL2 gene) (human); test: co-immunoprecipitation, anti-HA IP from HEK-293T cells starved of or restimulated with amino acids; bait CASTOR2-HA, prey CASTOR2-FLAG
[17] = target: complete GATOR2 complex, recombinant (WDR24-FLAG, WDR59, mios, sec13, seh1L co-expressed) (UniProt Q96S15); test: competition in co-immunoprecipitation: anti-FLAG IP of recombinant GATOR2 (WDR59-FLAG, WDR24, mios, sec13, seh1L), rising amount of myc-CASTOR2 cDNA; displaced protein HA-CASTOR1
[18] = target: T4, recombinant CASTOR1 (Cellular Arginine Sensor for mTORC1; protein encoded by the GATS protein-like 3 gene) (human); test: anti-HA co-immunoprecipitation, HEK-293T cells (FIG. 2A)
[19] = target: T5, endogenous CASTOR2 (human) (UniProt A6NHX0); test: anti-HA co-immunoprecipitation, HEK-293T cells (FIG. 2C)
T5 sequence (looked up): T2 sequence (looked up)

[20] = target: T4, recombinant CASTOR1 (Cellular Arginine Sensor for mTORC1; protein encoded by the GATS protein-like 3 gene) (human); test: anti-HA co-immunoprecipitation, HEK-293T cells (FIG. 3A)
[21] = target: T2, recombinant CASTOR2 (protein encoded by the GATSL2 gene) (human); test: co-purification from HEK-293T cells, SDS-PAGE with Coomassie blue staining
[22] = target: T4, recombinant CASTOR1 (Cellular Arginine Sensor for mTORC1; protein encoded by the GATS protein-like 3 gene) (human); test: anti-HA co-immunoprecipitation of differently tagged proteins, HEK-293T cells (FIG. 2A)
[23] = target: T2, recombinant CASTOR2 (protein encoded by the GATSL2 gene) (human); test: SDS-PAGE and Coomassie blue staining of purified complexes from HEK-293T cells (FIG. 2D)
[24] = target: T5, endogenous CASTOR2 (human); test: anti-HA co-immunoprecipitation, HEK-293T cells, immunoblot for endogenous CASTOR2 (FIG. 2C)
[25] = target: T5, endogenous CASTOR2 (human); test: co-immunoprecipitation, anti-HA IP from transfected HEK-293T cells, immunoblot for endogenous CASTOR2
[26] = target: T4, recombinant CASTOR1 (Cellular Arginine Sensor for mTORC1; protein encoded by the GATS protein-like 3 gene) (human); test: co-immunoprecipitation, anti-HA IP from co-transfected HEK-293T cells, immunoblot; bait CASTOR1-HA, prey CASTOR1-FLAG
[27] = target: T2, recombinant CASTOR2 (protein encoded by the GATSL2 gene) (human); test: co-immunoprecipitation, anti-HA IP from co-transfected HEK-293T cells, immunoblot; bait CASTOR1-HA, prey CASTOR2-FLAG
[28] = target: T4, recombinant CASTOR1 (Cellular Arginine Sensor for mTORC1; protein encoded by the GATS protein-like 3 gene) (human); test: co-immunoprecipitation, anti-HA IP from co-transfected HEK-293T cells starved of all amino acids 50 min; positive control lane
[29] = target: T2, recombinant CASTOR2 (protein encoded by the GATSL2 gene) (human); test: as above
[30] = target: T4, recombinant CASTOR1 (Cellular Arginine Sensor for mTORC1; protein encoded by the GATS protein-like 3 gene) (human); test: co-immunoprecipitation, anti-HA IP from HEK-293T cells starved of or restimulated with amino acids; bait CASTOR1-HA, prey CASTOR1-FLAG
[31] = target: T2, recombinant CASTOR2 (protein encoded by the GATSL2 gene) (human); test: co-immunoprecipitation, anti-HA IP from HEK-293T cells starved of or restimulated with amino acids; bait CASTOR1-HA, prey CASTOR2-FLAG

Measured: binding

B1: recombinant CASTOR2 (protein encoded by the GATSL2 gene) (protein, human, UniProt A6NHX0 1-329, looked up, not shown: small tags and cut ends)
chain: T2 sequence (looked up)
not listed: [18] | [19] | [20] | [21] | [22] | [23] | [24] | [25] | [26] | [27] | [28] | [29] | [30] | [31]
binds: all other assays above

B2: recombinant CASTOR1 (Cellular Arginine Sensor for mTORC1; protein encoded by the GATS protein-like 3 gene) (protein, human, UniProt Q8WTX7 1-329, looked up, not shown: small tags and cut ends)
chain: T3 sequence (looked up)
not listed: [1] | [3] | [5] | [6] | [7] | [8] | [10] | [11] | [12] | [13] | [14] | [15] | [16] | [17]
binds: all other assays above
